The record followed here is PMC7668254.

The data set deals with DROSHA fragment D3 + DGCR8 fragment G1. Kind of data set: EMSA. Conditions: 2 mM EDTA, 1.5 pmol RNA, 5-25 pmol D3-G1 in 10 uL, 50 mM Tris-HCl pH 7.5, 150 mM NaCl, 0.2 mg/ml BSA, 10% glycerol, 1 mM DTT, on ice 60 min, 4% native PAGE in 1x TBE at 4 C, recombinant protein.

The comparison behind a weaker result is the experiment's own reference, which may not be listed here.

As to “GGAGAACUGAAUUCCAUGGGUUGUGUCAGUGUCAGACCUGUGAAAUUCAGUUCUUCAG [Short pri-mir-146a_G]”, the binding result is “binds more weakly”.
